# Reference: the supplement of paper PMC11732987, “Enantioselective OTUD7B fragment discovery through chemoproteomics screening and high-throughput optimisation” (Communications Chemistry, 2025)
# By UniProt entry, the sequences of proteins in these tests, tags left out. Where a name states a change or a piece, a line headed by the entry shows the natural chain unless it says otherwise. Residues count along the entry.
# UniProt Q70CQ2: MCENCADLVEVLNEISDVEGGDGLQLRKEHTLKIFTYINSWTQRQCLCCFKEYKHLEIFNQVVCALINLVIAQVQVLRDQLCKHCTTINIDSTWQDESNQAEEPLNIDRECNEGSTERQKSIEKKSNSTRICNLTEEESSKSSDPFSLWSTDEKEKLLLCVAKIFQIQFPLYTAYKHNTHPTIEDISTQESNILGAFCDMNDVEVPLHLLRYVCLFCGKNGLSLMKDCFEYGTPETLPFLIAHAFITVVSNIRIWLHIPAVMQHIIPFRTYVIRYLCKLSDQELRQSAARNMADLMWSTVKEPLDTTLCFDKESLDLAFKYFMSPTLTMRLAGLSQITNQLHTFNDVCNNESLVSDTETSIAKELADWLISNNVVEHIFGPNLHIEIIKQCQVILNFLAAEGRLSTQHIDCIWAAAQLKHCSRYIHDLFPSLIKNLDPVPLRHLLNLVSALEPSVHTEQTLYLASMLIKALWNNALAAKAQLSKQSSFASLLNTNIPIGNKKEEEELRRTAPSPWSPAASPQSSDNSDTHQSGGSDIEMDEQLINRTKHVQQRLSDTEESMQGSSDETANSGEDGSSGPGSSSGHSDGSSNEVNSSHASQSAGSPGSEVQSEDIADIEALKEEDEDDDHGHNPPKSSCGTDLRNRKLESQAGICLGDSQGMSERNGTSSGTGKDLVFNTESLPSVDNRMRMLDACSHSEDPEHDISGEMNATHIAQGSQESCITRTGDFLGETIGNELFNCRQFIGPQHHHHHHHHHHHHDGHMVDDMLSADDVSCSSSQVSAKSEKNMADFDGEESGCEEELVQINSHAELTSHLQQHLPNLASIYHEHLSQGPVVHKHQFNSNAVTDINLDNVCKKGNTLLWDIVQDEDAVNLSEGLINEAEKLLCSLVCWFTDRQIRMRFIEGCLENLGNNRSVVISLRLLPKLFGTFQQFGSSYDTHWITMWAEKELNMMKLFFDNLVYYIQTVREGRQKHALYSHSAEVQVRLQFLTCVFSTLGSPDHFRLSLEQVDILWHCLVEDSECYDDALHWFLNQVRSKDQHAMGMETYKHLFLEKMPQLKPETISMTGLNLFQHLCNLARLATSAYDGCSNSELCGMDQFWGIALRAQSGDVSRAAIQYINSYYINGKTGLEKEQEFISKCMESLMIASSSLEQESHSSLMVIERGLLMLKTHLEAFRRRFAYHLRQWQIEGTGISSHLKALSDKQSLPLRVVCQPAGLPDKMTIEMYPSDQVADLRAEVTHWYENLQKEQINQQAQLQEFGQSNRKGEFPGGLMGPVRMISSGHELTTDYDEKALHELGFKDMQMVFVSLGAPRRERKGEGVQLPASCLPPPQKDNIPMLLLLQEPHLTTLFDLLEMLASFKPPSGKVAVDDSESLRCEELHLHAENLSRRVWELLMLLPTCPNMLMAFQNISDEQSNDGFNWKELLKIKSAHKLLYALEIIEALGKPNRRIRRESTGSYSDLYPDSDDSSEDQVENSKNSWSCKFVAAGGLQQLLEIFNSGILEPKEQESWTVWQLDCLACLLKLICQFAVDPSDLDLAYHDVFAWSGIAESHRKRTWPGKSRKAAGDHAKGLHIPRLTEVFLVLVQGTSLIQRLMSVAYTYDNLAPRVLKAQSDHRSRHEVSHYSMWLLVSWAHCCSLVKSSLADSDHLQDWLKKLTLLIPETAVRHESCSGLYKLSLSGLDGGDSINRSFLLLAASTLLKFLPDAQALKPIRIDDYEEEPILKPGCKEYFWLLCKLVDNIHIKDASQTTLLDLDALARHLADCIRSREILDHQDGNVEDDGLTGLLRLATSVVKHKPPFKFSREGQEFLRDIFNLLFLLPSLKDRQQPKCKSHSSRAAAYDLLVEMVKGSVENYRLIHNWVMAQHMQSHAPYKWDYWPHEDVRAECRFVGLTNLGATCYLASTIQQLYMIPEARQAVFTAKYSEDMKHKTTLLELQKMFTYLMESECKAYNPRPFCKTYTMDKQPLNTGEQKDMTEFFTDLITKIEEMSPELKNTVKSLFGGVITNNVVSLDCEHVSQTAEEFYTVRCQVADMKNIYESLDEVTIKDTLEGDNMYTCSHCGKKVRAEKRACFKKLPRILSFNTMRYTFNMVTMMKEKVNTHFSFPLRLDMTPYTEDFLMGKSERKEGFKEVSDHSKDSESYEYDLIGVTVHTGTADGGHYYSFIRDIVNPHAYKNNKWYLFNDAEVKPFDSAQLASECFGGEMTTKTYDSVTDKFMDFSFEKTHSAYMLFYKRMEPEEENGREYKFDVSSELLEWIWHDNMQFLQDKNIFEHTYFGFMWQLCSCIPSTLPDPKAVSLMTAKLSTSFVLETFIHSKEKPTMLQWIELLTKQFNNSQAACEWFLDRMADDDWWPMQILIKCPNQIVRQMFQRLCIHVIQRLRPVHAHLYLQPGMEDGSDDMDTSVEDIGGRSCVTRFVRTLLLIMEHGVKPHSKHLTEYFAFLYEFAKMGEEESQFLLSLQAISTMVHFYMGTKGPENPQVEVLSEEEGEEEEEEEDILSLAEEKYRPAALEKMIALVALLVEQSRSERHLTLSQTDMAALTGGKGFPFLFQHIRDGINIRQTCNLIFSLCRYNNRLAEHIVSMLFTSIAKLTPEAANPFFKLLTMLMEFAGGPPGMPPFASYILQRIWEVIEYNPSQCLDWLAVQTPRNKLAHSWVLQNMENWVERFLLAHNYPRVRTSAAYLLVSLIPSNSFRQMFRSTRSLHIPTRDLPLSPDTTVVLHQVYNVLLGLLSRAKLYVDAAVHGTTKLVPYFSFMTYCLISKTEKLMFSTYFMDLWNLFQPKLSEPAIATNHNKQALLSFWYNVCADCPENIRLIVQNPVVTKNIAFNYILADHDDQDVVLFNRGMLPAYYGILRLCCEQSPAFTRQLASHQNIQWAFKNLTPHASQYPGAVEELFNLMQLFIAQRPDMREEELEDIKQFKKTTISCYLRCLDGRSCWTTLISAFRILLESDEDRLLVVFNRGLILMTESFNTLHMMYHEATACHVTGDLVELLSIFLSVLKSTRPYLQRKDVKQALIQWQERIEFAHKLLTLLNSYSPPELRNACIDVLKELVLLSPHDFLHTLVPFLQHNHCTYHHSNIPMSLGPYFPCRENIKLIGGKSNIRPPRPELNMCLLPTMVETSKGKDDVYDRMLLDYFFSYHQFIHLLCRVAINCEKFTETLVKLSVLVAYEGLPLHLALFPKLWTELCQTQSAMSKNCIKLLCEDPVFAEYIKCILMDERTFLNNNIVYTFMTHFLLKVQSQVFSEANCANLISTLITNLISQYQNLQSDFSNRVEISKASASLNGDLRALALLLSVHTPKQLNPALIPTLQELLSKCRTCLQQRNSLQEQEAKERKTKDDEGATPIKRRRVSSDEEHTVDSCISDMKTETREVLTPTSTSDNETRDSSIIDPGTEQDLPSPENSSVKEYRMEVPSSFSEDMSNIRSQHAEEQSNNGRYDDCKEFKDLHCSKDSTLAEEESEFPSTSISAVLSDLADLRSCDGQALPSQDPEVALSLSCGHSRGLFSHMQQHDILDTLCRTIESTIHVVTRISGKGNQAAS
# UniProt O75691, 1754-1774: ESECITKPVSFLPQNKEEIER
# UniProt Q8NBZ7: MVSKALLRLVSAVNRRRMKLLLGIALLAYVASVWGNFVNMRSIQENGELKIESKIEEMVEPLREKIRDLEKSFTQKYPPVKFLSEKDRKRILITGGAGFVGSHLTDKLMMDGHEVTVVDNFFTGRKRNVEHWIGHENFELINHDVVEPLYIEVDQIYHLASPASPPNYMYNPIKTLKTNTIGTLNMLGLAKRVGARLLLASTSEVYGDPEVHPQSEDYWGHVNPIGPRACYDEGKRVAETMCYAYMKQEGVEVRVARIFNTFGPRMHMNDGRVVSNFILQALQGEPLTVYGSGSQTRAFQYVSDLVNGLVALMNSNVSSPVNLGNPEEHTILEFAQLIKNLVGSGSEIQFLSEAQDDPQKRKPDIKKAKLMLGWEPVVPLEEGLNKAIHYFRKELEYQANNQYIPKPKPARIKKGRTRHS
# UniProt P22415: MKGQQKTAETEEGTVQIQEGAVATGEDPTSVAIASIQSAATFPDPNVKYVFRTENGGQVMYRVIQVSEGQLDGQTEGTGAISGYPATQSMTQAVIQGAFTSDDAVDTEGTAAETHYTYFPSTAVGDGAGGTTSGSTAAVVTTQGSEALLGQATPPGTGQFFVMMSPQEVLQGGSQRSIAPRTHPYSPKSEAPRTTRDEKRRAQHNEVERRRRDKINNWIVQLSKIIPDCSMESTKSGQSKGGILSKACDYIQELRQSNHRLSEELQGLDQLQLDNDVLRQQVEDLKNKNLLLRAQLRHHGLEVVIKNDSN
# UniProt Q9P253: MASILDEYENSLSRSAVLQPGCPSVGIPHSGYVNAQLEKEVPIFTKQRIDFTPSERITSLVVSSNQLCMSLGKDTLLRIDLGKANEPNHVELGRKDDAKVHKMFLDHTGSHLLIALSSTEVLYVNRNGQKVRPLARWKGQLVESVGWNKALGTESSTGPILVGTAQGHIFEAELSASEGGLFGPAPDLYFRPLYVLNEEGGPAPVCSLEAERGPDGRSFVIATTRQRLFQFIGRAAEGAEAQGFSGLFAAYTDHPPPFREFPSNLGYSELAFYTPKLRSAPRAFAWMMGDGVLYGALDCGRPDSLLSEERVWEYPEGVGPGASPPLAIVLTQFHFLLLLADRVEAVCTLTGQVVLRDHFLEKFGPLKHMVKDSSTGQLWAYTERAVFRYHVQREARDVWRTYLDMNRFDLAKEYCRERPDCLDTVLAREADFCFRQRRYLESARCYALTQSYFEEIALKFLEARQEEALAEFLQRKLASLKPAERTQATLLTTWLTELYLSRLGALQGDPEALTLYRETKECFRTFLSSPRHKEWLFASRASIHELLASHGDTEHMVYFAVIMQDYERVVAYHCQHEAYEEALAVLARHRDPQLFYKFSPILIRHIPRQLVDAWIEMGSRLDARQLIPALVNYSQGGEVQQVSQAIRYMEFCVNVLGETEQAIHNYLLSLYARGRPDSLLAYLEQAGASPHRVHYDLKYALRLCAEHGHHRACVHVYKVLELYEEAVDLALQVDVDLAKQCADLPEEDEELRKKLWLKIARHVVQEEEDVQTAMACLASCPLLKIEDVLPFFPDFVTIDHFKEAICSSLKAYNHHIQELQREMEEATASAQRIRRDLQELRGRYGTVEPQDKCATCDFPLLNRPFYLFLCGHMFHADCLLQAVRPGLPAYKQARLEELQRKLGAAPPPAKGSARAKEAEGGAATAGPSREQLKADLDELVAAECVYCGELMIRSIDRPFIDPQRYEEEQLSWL
# UniProt P40818: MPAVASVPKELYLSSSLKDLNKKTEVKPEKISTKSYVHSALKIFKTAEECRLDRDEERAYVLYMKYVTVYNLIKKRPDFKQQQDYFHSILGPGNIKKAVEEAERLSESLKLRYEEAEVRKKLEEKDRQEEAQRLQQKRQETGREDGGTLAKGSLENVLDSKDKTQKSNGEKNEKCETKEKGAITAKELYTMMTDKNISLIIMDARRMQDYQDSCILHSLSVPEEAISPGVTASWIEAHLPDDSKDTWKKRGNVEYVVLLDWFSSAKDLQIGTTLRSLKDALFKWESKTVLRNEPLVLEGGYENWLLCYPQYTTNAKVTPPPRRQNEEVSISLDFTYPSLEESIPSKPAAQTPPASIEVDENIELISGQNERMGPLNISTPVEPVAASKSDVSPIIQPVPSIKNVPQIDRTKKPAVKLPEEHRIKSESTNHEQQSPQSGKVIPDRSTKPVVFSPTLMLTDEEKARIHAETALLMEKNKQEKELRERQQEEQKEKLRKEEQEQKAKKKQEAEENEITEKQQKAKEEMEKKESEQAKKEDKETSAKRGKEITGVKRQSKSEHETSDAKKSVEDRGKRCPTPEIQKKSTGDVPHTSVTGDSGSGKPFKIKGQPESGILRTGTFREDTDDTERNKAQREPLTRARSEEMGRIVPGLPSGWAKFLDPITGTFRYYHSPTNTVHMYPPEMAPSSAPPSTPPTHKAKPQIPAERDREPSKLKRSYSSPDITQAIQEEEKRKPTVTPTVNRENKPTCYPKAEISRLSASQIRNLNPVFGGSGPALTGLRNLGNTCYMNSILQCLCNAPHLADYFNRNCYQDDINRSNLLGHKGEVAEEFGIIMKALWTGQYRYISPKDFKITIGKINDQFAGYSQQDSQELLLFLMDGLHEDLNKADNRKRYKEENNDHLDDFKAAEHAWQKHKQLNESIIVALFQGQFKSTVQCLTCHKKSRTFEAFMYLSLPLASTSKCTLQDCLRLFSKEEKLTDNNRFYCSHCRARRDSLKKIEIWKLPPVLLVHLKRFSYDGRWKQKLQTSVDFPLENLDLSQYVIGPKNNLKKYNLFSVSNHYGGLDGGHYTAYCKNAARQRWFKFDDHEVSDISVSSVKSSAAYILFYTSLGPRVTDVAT
# UniProt P07919: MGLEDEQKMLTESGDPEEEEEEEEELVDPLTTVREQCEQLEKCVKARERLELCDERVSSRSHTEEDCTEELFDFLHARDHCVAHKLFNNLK
# UniProt Q5THJ4, 1452-1472: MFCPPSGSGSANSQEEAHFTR
# The list shows a part of the results. The data scatter; read single values as rough.
# Compound: ClCC(=O)N[C@@H]1CCCc2ccccc12
# Experiment: log2 mean competition ratio of IA-DTB cysteine labelling (DMSO/compound) (log2 ratio); higher = stronger cysteine engagement by compound
# Conditions: 50 µM; treatment time: 4 h; cell line lysate: HEK293T
# Experimental: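 IA-DTB competitive cysteine chemoproteomics in HEK293T RIPA lysate. Lysates were treated with compound 29 or 30 at 50 or 200 µM for 4 h, then IA-DTB (500 µM, 1 h), trypsin-digested, NeutrAvidin-enriched and analysed by diaPASEF. Competition ratio = intensity DMSO / intensity compound (n=4 treated, n=64 DMSO); binding: mean log2 CR ≥ 1 and p ≤ 0.05 plus QC filters. Target is the cysteine site.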
row,Target,log2 mean competition ratio
1,UNC45A C488 (UniProt Q9H3U1),-0.0887
2,VPS11 C709 (UniProt Q9H270),-0.241
3,USP34 C856 (UniProt Q70CQ2),0.479
4,UTP20 C1384 (UniProt O75691),-0.0417
5,USP28 C1058 (UniProt Q96RU2),-0.065
6,UBR5 C739 (UniProt O95071),0.0252
7,UTP20 C1757 (UniProt O75691),-0.278
8,UXS1 C230 (UniProt Q8NBZ7),0.15
9,UTY C76,0.227
10,VAC14 C114 (UniProt Q08AM6),0.394
11,USP34 C1330 (UniProt Q70CQ2),0.0998
12,UPF2 C990 (UniProt Q9HAU5),0.00522
13,VARS1 C917,-0.112
14,USF1 C229 (UniProt P22415),-0.0147
15,VDAC2 C76,0.323
16,USP48 C850 (UniProt Q86UV5),-0.204
17,VEZT C412,0.589
18,UTP20 C1794 (UniProt O75691),0.137
19,USP24 C1287 (UniProt Q9UPU5),-0.288

row,Target,log2 mean competition ratio
1,VPS18 C806 (UniProt Q9P253),0.0976
2,USP8 C748 (UniProt P40818),-0.169
3,USP34 C1215 (UniProt Q70CQ2),0.158
4,URGCP C49 (UniProt Q8TCY9),-0.593
5,USF1 C248 (UniProt P22415),0.195
6,USP34 C1731 (UniProt Q70CQ2),0.108
7,UTP20 C1644 (UniProt O75691),-0.344
8,UQCRH C67 (UniProt P07919),0.489
9,VPS13D C1454 (UniProt Q5THJ4),0.365
10,VHL C77 (UniProt P40337),0.163
11,USP35 C213,-0.123
12,UBR5 C1291 (UniProt O95071),-0.116
13,USP8 C809 (UniProt P40818),0.0922
14,VPS18 C741 (UniProt Q9P253),-0.426
15,UBR5 C2267 (UniProt O95071),0.554
16,USP32 C786 (UniProt Q8NFA0),0.163
17,UGGT1 C1493 (UniProt Q9NYU2),0.305
18,UTRN C862 (UniProt P46939),0.11

# Same assay, conditions: 200 µM; treatment time: 4 h; cell line lysate: HEK293T
row,Target,log2 mean competition ratio
1,UNC45A C488 (UniProt Q9H3U1),0.151
2,VPS11 C709 (UniProt Q9H270),-0.41
3,USP34 C856 (UniProt Q70CQ2),0.289
4,UTP20 C1384 (UniProt O75691),-0.658
5,USP28 C1058 (UniProt Q96RU2),0.046
6,UBR5 C739 (UniProt O95071),-0.542
7,UTP20 C1757 (UniProt O75691),0.0207
8,UXS1 C230 (UniProt Q8NBZ7),-0.0576
9,UTY C76,-0.332
10,VAC14 C114 (UniProt Q08AM6),0.0713
11,USP34 C1330 (UniProt Q70CQ2),-0.271
12,UPF2 C990 (UniProt Q9HAU5),0.174
13,VARS1 C917,-0.119
14,USF1 C229 (UniProt P22415),0.144
15,VDAC2 C76,-0.233
16,USP48 C850 (UniProt Q86UV5),-0.102
17,VEZT C412,0.31
18,UTP20 C1794 (UniProt O75691),-0.242
19,USP24 C1287 (UniProt Q9UPU5),0.214

row,Target,log2 mean competition ratio
1,VPS18 C806 (UniProt Q9P253),-0.12
2,USP8 C748 (UniProt P40818),-0.118
3,USP34 C1215 (UniProt Q70CQ2),-0.0337
4,URGCP C49 (UniProt Q8TCY9),0.146
5,USF1 C248 (UniProt P22415),0.0208
6,USP34 C1731 (UniProt Q70CQ2),0.199
7,UTP20 C1644 (UniProt O75691),-0.173
8,UQCRH C67 (UniProt P07919),0.409
9,VPS13D C1454 (UniProt Q5THJ4),-0.0109
10,VHL C77 (UniProt P40337),-0.205
11,USP35 C213,0.178
12,UBR5 C1291 (UniProt O95071),-0.403
13,USP8 C809 (UniProt P40818),0.189
14,VPS18 C741 (UniProt Q9P253),0.101
15,UBR5 C2267 (UniProt O95071),-0.158
16,USP32 C786 (UniProt Q8NFA0),0.729
17,UGGT1 C1493 (UniProt Q9NYU2),0.393
18,UTRN C862 (UniProt P46939),0.291
